Test results published in publication doi:10.1101/2025.01.13.632716.

Key:
[1] = biological target: IncA^D115A fused to T25 fragment of adenylate cyclase at the N-terminus (Caulobacter crescentus); experiment: two-hybrid
[2] = biological target: IncA fused to T25 fragment of adenylate cyclase at N-terminus (Caulobacter crescentus); experiment: two-hybrid
[3] = biological target: C-terminal tandem affinity purification (TAP)-tagged IncA (Caulobacter crescentus); experiment: co-IP

Binder	binding [1]	binding [2]	binding [3]
DnaN fused to the T18 fragment of adenylate cyclase at the C-terminus (protein, UniProt B8GXP6 1-372) MKLTIERAALLKALGHVQSVVERRNTIPILSNILLSAEGDRLSFSATDLDMEIIDEGFAQIDVPGQITAPAHTLYEIVRKLPDGADVSLSFSGDDPRLVIQAGRSRFNLPVLPAGDFPVMSSDGLSSRIAVDTNELIRLIDKTRFAISTEETRYYLNGLYVHTVNEGGETKLRAVATDGHRLALAEMPAPEGAVGIPGVIVPRKTIAEARRLMESAGETVDLQVSPQKVRFEFGAAALTSKVIDGAFPDYMRVIPRDNAKILTLDNDLFAKAVDRVATISAEKSRSVKLAVEPGRITLTVRNMEAGQAVEEVEVDYDGEPFEIGFNARYLLDVCGQIAGPQAEFRFADPASPTLVVDPVDPGVKYVLMPLRV	binds	binds	
DnaN-YFP (protein, UniProt B8GXP6 1-372) MKLTIERAALLKALGHVQSVVERRNTIPILSNILLSAEGDRLSFSATDLDMEIIDEGFAQIDVPGQITAPAHTLYEIVRKLPDGADVSLSFSGDDPRLVIQAGRSRFNLPVLPAGDFPVMSSDGLSSRIAVDTNELIRLIDKTRFAISTEETRYYLNGLYVHTVNEGGETKLRAVATDGHRLALAEMPAPEGAVGIPGVIVPRKTIAEARRLMESAGETVDLQVSPQKVRFEFGAAALTSKVIDGAFPDYMRVIPRDNAKILTLDNDLFAKAVDRVATISAEKSRSVKLAVEPGRITLTVRNMEAGQAVEEVEVDYDGEPFEIGFNARYLLDVCGQIAGPQAEFRFADPASPTLVVDPVDPGVKYVLMPLRV			binds

No constants are given. Whether binding was seen depends on the method and setting. Binding calls can cover weak binding; strength is not graded here. Sequences can lack the tags named with a protein. For part of these data: Binding seen in cells or lysates may run through a third protein.
